# Measured values as given in PubChem BioAssay AID180 (DTP/NCI, 2004).
# The list is a part of this screen's results and no random one: it covers a few groups of compounds. Not every dose and run of a compound is shown. T/C is the treated group as % of the vehicle group. Schedule codes are those of the source, taken here to give the interval after Q, in days (D) or hours (H), and the number of doses after X. Some T/C values are followed by the survivors on the day toxicity was checked; without a count or a note in brackets, all were alive then. Some entries hold several experiments; their values stand side by side, smallest first. Some entries give survivors of the animals treated and no T/C: the source files T/C as zero there, which appears to mark a toxic dose or a test without result, not a measured value. Survivors were counted at the toxicity check; its day is shown where the source gives one, and later deaths do not show.
# Test system: BDF1 mice, Adenocarcinoma 755 s.c., tumor weight T/C
# Experiment: NCI In Vivo Anticancer Drug Screen. Data for tumor model Adenocarcinoma 755 (subcutaneous) in B6D2F1 (BDF1) mice
# Conditions: T/C endpoint: mean tumor weight, schedule: Q01DX011 (ip), higher T/C = larger tumour; for T/C: evaluated on day 12
# Experimental: The antitumor activity of compounds was measured in mice bearing transplantable tumors. Survival or tumor size were measured and the results are expressed as the measurement made in the treated group (T) divided by the measurement made in the vehicle treated control group (C). The tumor model used in this assay is Adenocarcinoma 755 (subcutaneous) in B6D2F1 (BDF1) mice
# [1] = dose: 2.0 mg/kg/injection, vehicle: saline
# [2] = dose: 4.0 mg/kg/injection, vehicle: saline
# [3] = dose: 8.0 mg/kg/injection, vehicle: methylcellulose (MC)
# [4] = dose: 16.0 mg/kg/injection, vehicle: methylcellulose (MC)
# [5] = dose: 2.0 mg/kg/injection, vehicle: methylcellulose (MC)
# [6] = dose: 4.0 mg/kg/injection, vehicle: methylcellulose (MC)
# [7] = dose: 56.0 mg/kg/injection, vehicle: methylcellulose (MC)
structure (smiles),measurement,setting,value
O=c1[nH]c(=O)c2[nH]c(/N=N\N(CCCl)CCCl)nc2[nH]1,T/C,"dose: 18.75 mg/kg/injection, vehicle: saline",128 % of control
same,T/C,"dose: 37.5 mg/kg/injection, vehicle: saline",147 % of control
same,T/C,"dose: 75.0 mg/kg/injection, vehicle: saline",37 % of control
same,T/C,"dose: 150.0 mg/kg/injection, vehicle: saline",29 [8 of 10 alive] and 131 % of control
same,T/C,"dose: 300.0 mg/kg/injection, vehicle: saline",51 % of control [7 of 10 alive]
OC(CNCCCl)C(O)C(O)C(O)CNCCCl (stereo not given),T/C,"dose: 0.63 mg/kg/injection, vehicle: saline",24 % of control
same,T/C,"dose: 1.25 mg/kg/injection, vehicle: saline",43 % of control
same,T/C,"dose: 2.24 mg/kg/injection, vehicle: carboxymethylcellulose (CMC)",145 % of control
same,T/C,"dose: 2.5 mg/kg/injection, vehicle: saline",12 % of control
same,T/C,"dose: 4.47 mg/kg/injection, vehicle: carboxymethylcellulose (CMC)",64 % of control
same,T/C,"dose: 5.0 mg/kg/injection, vehicle: saline",7 % of control [9 of 10 alive]
same,T/C,"dose: 5.23 mg/kg/injection, vehicle: carboxymethylcellulose (CMC)",88 % of control [9 of 10 alive]
same,T/C,"dose: 8.38 mg/kg/injection, vehicle: carboxymethylcellulose (CMC)",69 % of control
same,T/C,"dose: 8.95 mg/kg/injection, vehicle: carboxymethylcellulose (CMC)",89 % of control [9 of 10 alive]
same,T/C,"dose: 10.47 mg/kg/injection, vehicle: carboxymethylcellulose (CMC)",81 % of control [9 of 10 alive]
same,T/C,"dose: 10.48 mg/kg/injection, vehicle: carboxymethylcellulose (CMC)",98 % of control
same,T/C,"dose: 13.97 mg/kg/injection, vehicle: carboxymethylcellulose (CMC)",55 % of control
same,T/C,"dose: 16.9 mg/kg/injection, vehicle: carboxymethylcellulose (CMC)",64 % of control
same,T/C,"dose: 20.95 mg/kg/injection, vehicle: carboxymethylcellulose (CMC)",35 and 62 % of control [9 of 10 alive]
same,T/C,"dose: 41.9 mg/kg/injection, vehicle: carboxymethylcellulose (CMC)",21 [8 of 10 alive] and 22 % of control [9 of 10 alive]
O=C(O)CCc1ccc(N(CCCl)CCCl)cc1,T/C,"dose: 1.0 mg/kg/injection, vehicle: saline",41 % of control [8 of 10 alive]
same,T/C,[1],74 % of control
same,T/C,[2],65 % of control
O=C(O)/C=C\c1cccc(N(CCCl)CCCl)c1,T/C,"dose: 1.25 mg/kg/injection, vehicle: carboxymethylcellulose (CMC)",103 % of control
same,T/C,"dose: 2.5 mg/kg/injection, vehicle: carboxymethylcellulose (CMC)",78 % of control [9 of 10 alive]
same,T/C,"dose: 5.0 mg/kg/injection, vehicle: carboxymethylcellulose (CMC)",89 % of control
same,T/C,[3],69 % of control
same,T/C,"dose: 10.0 mg/kg/injection, vehicle: carboxymethylcellulose (CMC)",90 % of control [8 of 10 alive]
same,T/C,"dose: 11.25 mg/kg/injection, vehicle: methylcellulose (MC)",29 % of control
same,T/C,[4],106 % of control
same,T/C,"dose: 22.5 mg/kg/injection, vehicle: methylcellulose (MC)",34 % of control [8 of 10 alive]
same,T/C,"dose: 32.0 mg/kg/injection, vehicle: methylcellulose (MC)",2 % of control
same,survivor count,"dose: 90.0 mg/kg/injection, vehicle: methylcellulose (MC)",3 of 10
O=C(O)COc1ccc(N(CCCl)CCCl)cc1,T/C,"dose: 0.25 mg/kg/injection, vehicle: carboxymethylcellulose (CMC)",63 % of control
same,T/C,"dose: 0.5 mg/kg/injection, vehicle: carboxymethylcellulose (CMC)",59 % of control
same,T/C,"dose: 1.0 mg/kg/injection, vehicle: carboxymethylcellulose (CMC)",19 % of control
same,T/C,"dose: 2.0 mg/kg/injection, vehicle: carboxymethylcellulose (CMC)",21 % of control
same,T/C,[5],51 % of control
same,T/C,[1],49 % of control
same,T/C,[6],33 % of control
same,T/C,[2],5 % of control
same,T/C,[3],28 % of control
CCOP(=O)(NCCCO)N(CCCl)CCCl (stereo not given),T/C,"dose: 28.0 mg/kg/injection, vehicle: methylcellulose (MC)",75 % of control [9 of 10 alive]
same,T/C,[7],57 % of control
same,T/C,"dose: 112.0 mg/kg/injection, vehicle: methylcellulose (MC)",11 % of control
same,survivor count,"dose: 150.0 mg/kg/injection, vehicle: methylcellulose (MC)",5 of 10
COc1cccc2c1OCCN2CCCl,T/C,[7],80 % of control [8 of 10 alive]
same,T/C,"dose: 113.0 mg/kg/injection, vehicle: methylcellulose (MC)",100 % of control
same,T/C,"dose: 225.0 mg/kg/injection, vehicle: methylcellulose (MC)",62 % of control [9 of 10 alive]
NC(Cc1ccc(N(CCCl)CCCl)c(Cl)c1)C(=O)O (stereo not given),T/C,"dose: 1.0 mg/kg/injection, vehicle: methylcellulose (MC)",18 % of control [9 of 10 alive]
same,survivor count,[5],5 of 10
CCOC(=O)COc1ccc(N(CCCl)CCCl)cc1,T/C,[5],"31, 51, 54 % of control"
same,T/C,[6],"12, 20 [7 of 10 alive], 29 % of control"
same,T/C,[3],9 and 11 % of control
same,survivor count,[3],6 of 10
same,T/C,[4],6 % of control [7 of 10 alive]
same,survivor count,[4],3 of 10
CC(C)N(CCCl)/N=N/c1nc2nc[nH]c(=O)c2[nH]1,T/C,"dose: 25.0 mg/kg/injection, vehicle: saline",106 % of control
same,T/C,"dose: 50.0 mg/kg/injection, vehicle: saline",92 % of control
same,T/C,"dose: 100.0 mg/kg/injection, vehicle: saline",115 % of control
same,T/C,"dose: 200.0 mg/kg/injection, vehicle: saline",81 % of control [8 of 10 alive]
O=C(O)CCc1cccc(N(CCCl)CCCl)c1,T/C,"dose: 4.5 mg/kg/injection, vehicle: methylcellulose (MC)",61 [7 of 10 alive] and 66 % of control
same,T/C,"dose: 9.0 mg/kg/injection, vehicle: methylcellulose (MC)",50 and 60 % of control [8 of 10 alive]
same,T/C,"dose: 18.0 mg/kg/injection, vehicle: methylcellulose (MC)",23 % of control
same,T/C,"dose: 36.0 mg/kg/injection, vehicle: methylcellulose (MC)",13 % of control [9 of 10 alive]
